For one series, the system named is Escherichia coli. Nature of the series: Antibacterial activity against hyperpermeable Escherichia coli D22 harboring LpxC mutant after 20 to 22 hrs.
Series [1] in a line: Thermodynamic aqueous solubility of the compound at pH 7.4. The note with it: buffer.
Series [2] in a line: Apparent permeability across human Caco2 cells. Conditions: Caco-2.
The target of series [3] is Voltage-gated inwardly rectifying potassium channel KCNH2 (Homo sapiens, UniProt Q12809). Nature of the series: Inhibition of human ERG transfected in CHO cells by patch clamp method.

By UniProt entry, the sequences of proteins in these tests, tags left out. Where a name states a change or a piece, a line headed by the entry shows the natural chain unless it says otherwise.
UniProt Q12809: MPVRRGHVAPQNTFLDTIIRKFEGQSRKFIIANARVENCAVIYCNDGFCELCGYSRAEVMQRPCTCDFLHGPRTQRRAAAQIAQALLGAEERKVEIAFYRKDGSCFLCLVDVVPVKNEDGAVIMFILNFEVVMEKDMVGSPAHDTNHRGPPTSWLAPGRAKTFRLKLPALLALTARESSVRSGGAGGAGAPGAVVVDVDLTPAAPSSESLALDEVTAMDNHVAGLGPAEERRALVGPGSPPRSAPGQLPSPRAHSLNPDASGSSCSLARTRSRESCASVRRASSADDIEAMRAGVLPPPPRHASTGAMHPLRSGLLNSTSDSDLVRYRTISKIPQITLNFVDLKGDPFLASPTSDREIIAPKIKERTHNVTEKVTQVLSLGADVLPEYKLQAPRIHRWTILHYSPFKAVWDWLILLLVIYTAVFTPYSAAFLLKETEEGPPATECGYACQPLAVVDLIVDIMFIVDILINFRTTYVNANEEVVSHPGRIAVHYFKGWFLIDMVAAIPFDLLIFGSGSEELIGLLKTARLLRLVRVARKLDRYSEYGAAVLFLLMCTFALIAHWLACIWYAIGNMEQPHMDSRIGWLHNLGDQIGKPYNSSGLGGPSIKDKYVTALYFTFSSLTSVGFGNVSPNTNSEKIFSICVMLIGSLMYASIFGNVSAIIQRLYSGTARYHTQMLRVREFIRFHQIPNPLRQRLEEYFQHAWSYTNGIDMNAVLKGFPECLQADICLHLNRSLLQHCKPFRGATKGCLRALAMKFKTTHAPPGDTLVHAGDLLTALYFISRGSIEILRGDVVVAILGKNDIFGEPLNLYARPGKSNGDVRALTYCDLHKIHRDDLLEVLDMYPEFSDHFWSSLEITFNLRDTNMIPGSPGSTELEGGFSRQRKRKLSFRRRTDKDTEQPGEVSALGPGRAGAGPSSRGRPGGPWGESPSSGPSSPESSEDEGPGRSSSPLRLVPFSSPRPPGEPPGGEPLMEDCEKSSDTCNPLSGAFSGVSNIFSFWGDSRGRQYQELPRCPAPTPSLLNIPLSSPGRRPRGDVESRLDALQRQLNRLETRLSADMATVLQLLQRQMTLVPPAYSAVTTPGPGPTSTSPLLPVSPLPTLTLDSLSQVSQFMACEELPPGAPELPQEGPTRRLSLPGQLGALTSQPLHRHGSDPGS

The structures appear in SMILES notation. Converted amounts (≈) assume the structure as drawn.

As for `O=c1c2nccn2c2cc(F)c(-c3ccncc3)cc2n1C1CC1`, it took 8 µg/mL (≈ 25 µM) to inhibit growth against Escherichia coli (MIC). Moreover, the thermodynamic solubility in series [1] turned out to be 10 µg/mL (≈ 31.2 µM). Further, the Papp in series [2] came to 21.6 ×10⁻⁶ cm/s. Besides, the IC50 in series [3] was greater than 30 µM.
